# In the supplement of paper PMC11098740:
# By UniProt entry, the sequences of proteins in these tests, tags left out.
# UniProt O14980, whole entry: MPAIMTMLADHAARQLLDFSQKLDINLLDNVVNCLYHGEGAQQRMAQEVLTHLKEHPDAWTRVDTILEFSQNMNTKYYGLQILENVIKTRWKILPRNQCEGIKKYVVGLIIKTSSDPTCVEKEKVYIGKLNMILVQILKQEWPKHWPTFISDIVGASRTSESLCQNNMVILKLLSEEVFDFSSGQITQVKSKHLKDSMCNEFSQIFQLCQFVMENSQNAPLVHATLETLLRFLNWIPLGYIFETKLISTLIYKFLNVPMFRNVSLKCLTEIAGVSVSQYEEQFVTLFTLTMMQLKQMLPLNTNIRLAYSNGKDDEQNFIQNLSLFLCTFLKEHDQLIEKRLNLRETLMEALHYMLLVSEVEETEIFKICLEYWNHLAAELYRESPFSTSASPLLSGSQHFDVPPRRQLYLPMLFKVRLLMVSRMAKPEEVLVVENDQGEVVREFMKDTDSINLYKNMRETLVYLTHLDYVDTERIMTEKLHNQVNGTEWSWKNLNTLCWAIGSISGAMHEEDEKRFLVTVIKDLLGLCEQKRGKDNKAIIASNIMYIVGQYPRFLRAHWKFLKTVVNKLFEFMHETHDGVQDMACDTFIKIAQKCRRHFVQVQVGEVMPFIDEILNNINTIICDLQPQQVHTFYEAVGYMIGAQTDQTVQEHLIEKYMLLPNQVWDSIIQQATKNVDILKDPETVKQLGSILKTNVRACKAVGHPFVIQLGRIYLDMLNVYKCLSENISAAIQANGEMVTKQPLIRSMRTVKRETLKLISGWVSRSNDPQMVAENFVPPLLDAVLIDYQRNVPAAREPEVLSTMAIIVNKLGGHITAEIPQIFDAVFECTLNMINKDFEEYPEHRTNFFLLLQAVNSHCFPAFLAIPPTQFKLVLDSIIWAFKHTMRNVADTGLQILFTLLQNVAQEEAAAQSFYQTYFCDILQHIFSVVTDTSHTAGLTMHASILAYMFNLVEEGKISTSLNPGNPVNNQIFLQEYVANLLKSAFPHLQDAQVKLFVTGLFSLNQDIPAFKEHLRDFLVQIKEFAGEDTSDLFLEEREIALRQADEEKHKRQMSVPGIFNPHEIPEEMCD
# This is one part of the list. Single values are uncertain, as repeats are few or missing.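 Pooled together, 41 HAP1 clones carry intronic fluorescent tags on 61 cancer-associated proteins, and each clone is recognized by its imaging pattern. Measurements are benchmarked against DMSO-treated control wells. dBET6, a BRD4 degrader, served as the positive control.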
# Molecular target: XPO1 (intron 15 mScarlet tag, HAP1) (UniProt O14980)
# Assay: XPO1 fluorescence intensity change vs DMSO (log2 fold change); higher = more XPO1 protein
# Details: 6 h
row,Compound,XPO1 fluorescence intensity change (log2)
1,CN(C)c1ccc(C(=O)c2ccc(N(C)C)cc2)cc1 (10 µM),-0.144
2,[O-][Cl+3]([O-])([O-])[O-].[O-][Cl+3]([O-])([O-])[O-].c1c[n+]2cn1CCCC[n+]1ccn(c1)CCCC2 (10 µM),-0.0677
3,CN(C)C(=S)SSC(=S)N(C)C (1 µM),0.00631
4,CCOc1ccccc1-n1c(C(C)N2CCN(C(=O)COc3ccc(Cl)cc3)CC2)nc2ccccc2c1=O (stereo unspecified) [erastin] (10 µM),-0.0776
5,O=c1c2ccccc2nc(CCl)n1-c1ccc(F)cc1 (10 µM),-0.173
6,C[C@@H]1C[C@@H]([C@H](O)CC2CC(=O)NC(=O)C2)C(=O)[C@@H](C)C1 [cycloheximide] (10 µM),-0.18

# Molecular target: BRD4 (intron 10 mScarlet tag, HAP1) (UniProt O60885)
# Assay: BRD4 median nuclear fluorescence intensity change vs DMSO (log2 fold change); higher = more BRD4 protein
# Details: 6 h
row,Compound,BRD4 median nuclear fluorescence intensity change (log2)
1,N[C@@H]1C[C@H]1c1ccccc1.N[C@H]1C[C@@H]1c1ccccc1 [tranylcypromine] (10.0004 µM),0.0423
2,C[C@]12O[C@H](C[C@]1(O)CO)n1c3ccccc3c3c4c(c5c6ccccc6n2c5c31)CNC4=O [lestaurtinib] (2 µM),-0.0489
3,COc1cc2c(cc1OC)C1CC(=O)C(CC(C)C)CN1CC2 (stereo unspecified) [tetrabenazine] (10 µM),-0.0129
4,CCC1(c2ccc(N)cc2)CCC(=O)NC1=O (stereo unspecified) [aminoglutethimide] (20 µM),-0.0584
5,CC[C@@H](C(N)=O)N1CCCC1=O [levetiracetam] (10 µM),-0.0276
6,COCC1(CO)C(=O)C2CCN1CC2 (stereo unspecified) [prima-1 met] (20 µM),0.00841
7,Cc1cccc([C@H](C)c2c[nH]cn2)c1C [dexmedetomidine] (10.0000196 µM),0.0285
8,O=P1(N(CCCl)CCCl)NCCCO1 (stereo unspecified) [cyclophosphamide] (10 µM),0.0725
9,CN(C)c1ccc(C(=O)c2ccc(N(C)C)cc2)cc1 (10 µM),0.0113
10,[O-][Cl+3]([O-])([O-])[O-].[O-][Cl+3]([O-])([O-])[O-].c1c[n+]2cn1CCCC[n+]1ccn(c1)CCCC2 (10 µM),0.165
11,O=C(O)CCCc1ccc(N(CCCl)CCCl)cc1 [chlorambucil] (10.66 µM),0.0304
12,NC(=O)C[S@@+]([O-])C(c1ccccc1)c1ccccc1 [armodafinil (modafinil)] (10 µM),0.0877
13,N.N.[Cl][Pt][Cl] [cisplatin] (20 µM),0.196
14,NCC(CC(=O)O)c1ccc(Cl)cc1 (stereo unspecified) [baclofen] (10 µM),-0.0443
15,N[C@@H](Cc1ccc(N(CCCl)CCCl)cc1)C(=O)O [melphalan] (10 µM),0.0129
16,O=c1[nH]c2ccc(Cl)cc2c(N[C@@H]2CN3CCC2CC3)c1-c1nc2ccccc2[nH]1 [chir-124] (20 µM),0.0195
17,Cc1c(N)nc([C@H](CC(N)=O)NC[C@H](N)C(N)=O)nc1C(=O)N[C@H](C(=O)N[C@H](C)[C@@H](O)[C@H](C)C(=O)N[C@H](C(=O)NCCc1nc(-c2nc(C(=O)NCCC[S+](C)C)cs2)cs1)[C@@H](C)O)[C@@H](OC1OC(CO)C(O)C(O)C1OC1OC(CO)C(O)C(OC(N)=O)C1O)c1cnc[nH]1 (stereo partly specified) [bleomycin] (9.95632 µM),-0.00141
18,CN(C)C(=O)Oc1ccc[n+](C)c1 [pyridostigmine  bromide] (10 µM),0.0758
19,O=[N+]([O-])O[C@H]1CO[C@H]2[C@@H]1OC[C@H]2O[N+](=O)[O-] [isosorbide dinitrate] (9.99947 µM),0.161
20,CC(C)[C@]12O[C@H]1[C@@H]1O[C@]13[C@]1(O[C@H]1C[C@H]1C4=C(CC[C@@]13C)C(=O)OC4)[C@@H]2O [triptolide] (10 µM),-0.0455

row,Compound,BRD4 median nuclear fluorescence intensity change (log2)
1,CN(C)C(=S)SSC(=S)N(C)C (1 µM),0.125
2,CN1C[C@H](C(=O)N[C@]2(C)O[C@@]3(O)[C@@H]4CCCN4C(=O)[C@H](Cc4ccccc4)N3C2=O)C[C@@H]2c3cccc4[nH]cc(c34)C[C@H]21 [dihydroergotamine] (9.9995338 µM),0.0781
3,CCCC(C)(COC(N)=O)COC(=O)NC(C)C (stereo unspecified) [carisoprodol] (10 µM),0.0305
4,O=P1(NCCCl)OCCCN1CCCl (stereo unspecified) [ifosfamide] (20 µM),0.0162
5,CC(O)(CS(=O)(=O)c1ccc(F)cc1)C(=O)Nc1ccc(C#N)c(C(F)(F)F)c1 (stereo unspecified) [bicalutamide] (20 µM),0.0457
6,CCOc1ccccc1-n1c(C(C)N2CCN(C(=O)COc3ccc(Cl)cc3)CC2)nc2ccccc2c1=O (stereo unspecified) [erastin] (10 µM),-0.202
7,CCN(C(C)=O)c1cccc(-c2ccnc3c(C#N)cnn23)c1 [zaleplon] (10.0001 µM),0.0582
8,CCC(C)C(C)(COC(N)=O)COC(N)=O (stereo unspecified) [mebutamate] (10 µM),0.0245
9,C[C@]12C=CC(=O)C=C1CC[C@@H]1[C@@H]2CC[C@]2(C)OC(=O)CC[C@@H]12 [testolactone] (10 µM),0.00124
10,Cn1c(CCCC(=O)O)nc2cc(N(CCCl)CCCl)ccc21 [bendamustine] (20 µM),0.0445
11,COC[C@@H](NC(C)=O)C(=O)NCc1ccccc1 [lacosamide] (10 µM),0.0398
12,C=C1C[C@@H]2[C@H](CC[C@]3(C)C(=O)CC[C@@H]23)[C@@]2(C)C=CC(=O)C=C12 [exemestane] (20 µM),-0.081
13,C[C@]12Cc3c[nH]nc3C[C@@H]1CC[C@@H]1[C@@H]2CC[C@@]2(C)[C@H]1CC[C@]2(C)O [stanozolol] (10 µM),-0.0554
14,C[C@]12CC[C@H]3[C@@H](CCC4=CC(=O)CC[C@@]43C)[C@@H]1CC[C@@H]2O [testosterone] (10.00049246 µM),0.065
15,COc1ccc2c(c1)[C@]13CCCC[C@@H]1[C@H](C2)N(C)CC3 [dextromethorphan] (10 µM),0.0873
16,CC[C@@H](CO)NC(=O)[C@@H]1C=C2c3cccc4[nH]cc(c34)C[C@H]2N(C)C1 [methylergonovine] (13.4 µM),0.0653
17,O=c1c2ccccc2nc(CCl)n1-c1ccc(F)cc1 (10 µM),0.122
18,CC(C)(O)C(=O)Nc1ccc([N+](=O)[O-])c(C(F)(F)F)c1 [hydroxyflutamide] (10 µM),0.0177
19,C[C@]12CC[C@H]3[C@@H](CC[C@@]45O[C@@H]4C(O)=C(C#N)C[C@]35C)[C@@H]1CC[C@@H]2O [trilostane] (9.99988 µM),0.00913
20,C[C@@H]1C[C@@H]([C@H](O)CC2CC(=O)NC(=O)C2)C(=O)[C@@H](C)C1 [cycloheximide] (10 µM),-0.231

# Single entries from the list:
# `CN(C)c1ccc(C(=O)c2ccc(N(C)C)cc2)cc1` (10 µM) – BRD4 median nuclear fluorescence intensity change (log2): 0.0113
# `CCCC(C)(COC(N)=O)COC(=O)NC(C)C` (stereo unspecified) [carisoprodol] (10 µM) – BRD4 median nuclear fluorescence intensity change (log2): 0.0305
# `C=C1C[C@@H]2[C@H](CC[C@]3(C)C(=O)CC[C@@H]23)[C@@]2(C)C=CC(=O)C=C12` [exemestane] (20 µM) – BRD4 median nuclear fluorescence intensity change (log2): -0.081
